Values from PubChem BioAssay AID1259308 (NCATS, 2017)
In all, the deposit lists about 59,000 reagents; this is a random part of them. About 1,510 of all reagents (2.6%) count as active. 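Calls use total luciferase alone and ignore viability, so some active siRNAs may act by altering cell number.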 Reagents against one gene are numbered here. Further read-outs or replicates are left out here. Reagent sequences are not shown.

Purpose: 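Genes whose loss raises luciferase production in HEK293 cells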 (primary screen)
System: human HEK293 embryonic kidney cells stably expressing firefly luciferase (HEK-CMV-Luc2-Hygro)
Reagents: single siRNA against human genes, 0.8 pmol siRNA per well
Time to read-out: 72 h
Read-out: 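Luciferase light (ONE-Glo) measured on one replicate plate set and viability (CellTiter-Glo) on the other, scaled to a negative control siRNA, with robust z-scores and luciferase per cell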
Direction: total luciferase, z-score: higher = more reporter protein produced
Active means: 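Active when the median/MAD z-score for overall luciferase is greater than 3; a gene was taken forward for validation with new siRNAs if at least two of its three siRNAs passed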
Meaning of the calls: active = raised luciferase; inactive = no rise

{"gene symbol": "ZNRF1", "reagent": 1, "total luciferase, z-score": 1.14, "activity call": "inactive"}
{"gene symbol": "ZNRF1", "reagent": 2, "total luciferase, z-score": -0.329, "activity call": "inactive"}
{"gene symbol": "ZNRF1", "reagent": 3, "total luciferase, z-score": -0.267, "activity call": "inactive"}
{"gene symbol": "DYNC2I2", "reagent": 1, "total luciferase, z-score": -0.323, "activity call": "inactive"}
{"gene symbol": "DYNC2I2", "reagent": 2, "total luciferase, z-score": -1.42, "activity call": "inactive"}
{"gene symbol": "DYNC2I2", "reagent": 3, "total luciferase, z-score": -1.36, "activity call": "inactive"}
{"gene symbol": "SLC19A1", "reagent": 1, "total luciferase, z-score": -0.612, "activity call": "inactive"}
{"gene symbol": "SLC19A1", "reagent": 2, "total luciferase, z-score": -0.643, "activity call": "inactive"}
{"gene symbol": "SLC19A1", "reagent": 3, "total luciferase, z-score": 0.819, "activity call": "inactive"}
{"gene symbol": "FMNL2", "reagent": 1, "total luciferase, z-score": 2.49, "activity call": "inactive"}
{"gene symbol": "FMNL2", "reagent": 2, "total luciferase, z-score": -0.92, "activity call": "inactive"}
{"gene symbol": "FMNL2", "reagent": 3, "total luciferase, z-score": -0.121, "activity call": "inactive"}
{"gene symbol": "BCL2L13", "reagent": 1, "total luciferase, z-score": 0.215, "activity call": "inactive"}
{"gene symbol": "BCL2L13", "reagent": 2, "total luciferase, z-score": 0.123, "activity call": "inactive"}
{"gene symbol": "BCL2L13", "reagent": 3, "total luciferase, z-score": 0.785, "activity call": "inactive"}

A few values from above.
Value for FMNL2 #3 under “activity call”: inactive
Result of ZNRF1 #3 in “activity call”: inactive
Entry for FMNL2 #1 in “total luciferase, z-score”: 2.49
FMNL2 #2, activity call → inactive

The listing continues:
{"gene symbol": "ZNF497", "reagent": 1, "total luciferase, z-score": 1.2, "activity call": "inactive"}
{"gene symbol": "ZNF497", "reagent": 2, "total luciferase, z-score": -1.34, "activity call": "inactive"}
{"gene symbol": "ZNF497", "reagent": 3, "total luciferase, z-score": -0.569, "activity call": "inactive"}
{"gene symbol": "LYPLA2", "reagent": 1, "total luciferase, z-score": 1.28, "activity call": "inactive"}
{"gene symbol": "LYPLA2", "reagent": 2, "total luciferase, z-score": 1.13, "activity call": "inactive"}
{"gene symbol": "LYPLA2", "reagent": 3, "total luciferase, z-score": 0.189, "activity call": "inactive"}
{"gene symbol": "MRPS14", "reagent": 1, "total luciferase, z-score": 0.671, "activity call": "inactive"}
{"gene symbol": "MRPS14", "reagent": 2, "total luciferase, z-score": -0.607, "activity call": "inactive"}
{"gene symbol": "MRPS14", "reagent": 3, "total luciferase, z-score": -1.43, "activity call": "inactive"}
{"gene symbol": "STK17A", "reagent": 1, "total luciferase, z-score": -0.303, "activity call": "inactive"}
{"gene symbol": "STK17A", "reagent": 2, "total luciferase, z-score": 0.258, "activity call": "inactive"}
{"gene symbol": "STK17A", "reagent": 3, "total luciferase, z-score": -0.664, "activity call": "inactive"}
{"gene symbol": "CMTM8", "reagent": 1, "total luciferase, z-score": 0.499, "activity call": "inactive"}
{"gene symbol": "CMTM8", "reagent": 2, "total luciferase, z-score": 1.11, "activity call": "inactive"}
{"gene symbol": "CMTM8", "reagent": 3, "total luciferase, z-score": 1.82, "activity call": "inactive"}
{"gene symbol": "PRSS56", "reagent": 1, "total luciferase, z-score": -0.0766, "activity call": "inactive"}
{"gene symbol": "PRSS56", "reagent": 2, "total luciferase, z-score": 2.15, "activity call": "inactive"}
{"gene symbol": "PRSS56", "reagent": 3, "total luciferase, z-score": -0.286, "activity call": "inactive"}
{"gene symbol": "GPC1", "reagent": 1, "total luciferase, z-score": -0.224, "activity call": "inactive"}
{"gene symbol": "GPC1", "reagent": 2, "total luciferase, z-score": -1.81, "activity call": "inactive"}
{"gene symbol": "GPC1", "reagent": 3, "total luciferase, z-score": 0.262, "activity call": "inactive"}
{"gene symbol": "CLPX", "reagent": 1, "total luciferase, z-score": -0.731, "activity call": "inactive"}
{"gene symbol": "CLPX", "reagent": 2, "total luciferase, z-score": -0.185, "activity call": "inactive"}
{"gene symbol": "CLPX", "reagent": 3, "total luciferase, z-score": -0.809, "activity call": "inactive"}
{"gene symbol": "SLC22A7", "reagent": 1, "total luciferase, z-score": -0.794, "activity call": "inactive"}
{"gene symbol": "SLC22A7", "reagent": 2, "total luciferase, z-score": -1.17, "activity call": "inactive"}
{"gene symbol": "SLC22A7", "reagent": 3, "total luciferase, z-score": -0.63, "activity call": "inactive"}
